# Assay results

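Malaria parasite (P. falciparum) lines kept in red blood cells; parasite DNA is measured by SYBR Green fluorescence after lysis, 72 h after compound addition. Each compound was titrated across a series from about 0.000037 to 29 µM. The number is the fitted AC50, the concentration giving a half-maximal change in signal; a lower value means higher potency, whether the curve shows a decrease or an increase. Calls follow the curve class and fit quality: every row here is inconclusive, covering signal-raising curves and weak, poorly fitted, partial or highest-dose-only inhibition curves.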

Values are in nM. All entries here are filed as inconclusive. These entries are mostly ones the record files as inconclusive; other results of the assay are not listed here. Potencies fitted to partial, single-point or poorly fitting curves are rough. Some entries filed as inconclusive have a full curve. The first word of each remark tells which way the curve ran; it can be opposite to the aim of the assay.

| # | Compound | condition | fitted potency (nM) | remark |
|---|---|---|---|---|
| 1 | `Cc1cncc(C(=O)O)[n+]1[O-]` | N140 | 3981 | inhibitor, single point |
| 2 | `Cc1cncc(C(=O)O)[n+]1[O-]` | C2A | 3981 | inhibitor, single point |
| 3 | `Cc1cncc(C(=O)O)[n+]1[O-]` | CP238 | 1000 | inhibitor, single point |
| 4 | `Cc1cncc(C(=O)O)[n+]1[O-]` | ECU | 3981 | inhibitor, single point |
| 5 | `Cc1cncc(C(=O)O)[n+]1[O-]` | AS120 | 3981 | inhibitor, single point |
| 6 | `Cc1cncc(C(=O)O)[n+]1[O-]` | DFO2036 | 1412 | inhibitor, single point |
| 7 | `CC(C)N=c1cc2n(-c3ccc(Cl)cc3)c3ccccc3nc-2cc1Nc1ccc(Cl)cc1` | 3D7 | 7080 | inhibitor, single point |
| 8 | `CC(C)N=c1cc2n(-c3ccc(Cl)cc3)c3ccccc3nc-2cc1Nc1ccc(Cl)cc1` | PC15 | 3548 | inhibitor, single point |
| 9 | `CC(C)N=c1cc2n(-c3ccc(Cl)cc3)c3ccccc3nc-2cc1Nc1ccc(Cl)cc1` | P94_40 | 1259 | inhibitor, full curve |
| 10 | `CC(C)N=c1cc2n(-c3ccc(Cl)cc3)c3ccccc3nc-2cc1Nc1ccc(Cl)cc1` | CP266 | 907.4 | inhibitor, partial curve, poor fit |
| 11 | `CC(C)N=c1cc2n(-c3ccc(Cl)cc3)c3ccccc3nc-2cc1Nc1ccc(Cl)cc1` | CP237 | 6310 | inhibitor, single point |
| 12 | `CC(C)N=c1cc2n(-c3ccc(Cl)cc3)c3ccccc3nc-2cc1Nc1ccc(Cl)cc1` | DIV14 | 2279 | inhibitor, partial curve, poor fit |
| 13 | `CC(C)N=c1cc2n(-c3ccc(Cl)cc3)c3ccccc3nc-2cc1Nc1ccc(Cl)cc1` | CP260 | 7080 | inhibitor, single point |
| 14 | `CC(C)N=c1cc2n(-c3ccc(Cl)cc3)c3ccccc3nc-2cc1Nc1ccc(Cl)cc1` | CP192 | 2 | activator, full curve |
| 15 | `Cc1cc(O)c(C(C)C)cc1Cl` | DIV17 | 19011 | inhibitor, single point |
| 16 | `Cc1cc(O)c(C(C)C)cc1Cl` | HB3 | 15848 | inhibitor, single point |
| 17 | `Cc1cc(O)c(C(C)C)cc1Cl` | TAB165 | 17782 | inhibitor, single point |
| 18 | `Cc1cc(O)c(C(C)C)cc1Cl` | GB4 | 19011 | inhibitor, partial curve, poor fit |
| 19 | `Cc1cc(O)c(C(C)C)cc1Cl` | 7G8 | 14125 | inhibitor, single point |
| 20 | `OCCN1CCN(CCC=C2c3ccccc3Sc3ccc(Cl)cc32)CC1` | DIV17 | 3612 | inhibitor, partial curve, poor fit |
| 21 | `OCCN1CCN(CCC=C2c3ccccc3Sc3ccc(Cl)cc32)CC1` | PC26 | 3220 | inhibitor, partial curve |
| 22 | `OCCN1CCN(CCC=C2c3ccccc3Sc3ccc(Cl)cc32)CC1` | PAD | 3162 | inhibitor, partial curve |
| 23 | `OCCN1CCN(CCC=C2c3ccccc3Sc3ccc(Cl)cc32)CC1` | P93_24 | 7080 | inhibitor, single point |
| 24 | `OCCN1CCN(CCC=C2c3ccccc3Sc3ccc(Cl)cc32)CC1` | N140 | 3548 | inhibitor, partial curve |
| 25 | `OCCN1CCN(CCC=C2c3ccccc3Sc3ccc(Cl)cc32)CC1` | P94_40 | 7080 | inhibitor, single point |
| 26 | `OCCN1CCN(CCC=C2c3ccccc3Sc3ccc(Cl)cc32)CC1` | HB3 | 3162 | inhibitor, partial curve |
| 27 | `OCCN1CCN(CCC=C2c3ccccc3Sc3ccc(Cl)cc32)CC1` | PC15 | 7943 | inhibitor, single point |
| 28 | `OCCN1CCN(CCC=C2c3ccccc3Sc3ccc(Cl)cc32)CC1` | TAB165 | 3548 | inhibitor, partial curve, poor fit |
| 29 | `OCCN1CCN(CCC=C2c3ccccc3Sc3ccc(Cl)cc32)CC1` | ECU | 4467 | inhibitor, single point |
| 30 | `OCCN1CCN(CCC=C2c3ccccc3Sc3ccc(Cl)cc32)CC1` | PC49 | 3162 | inhibitor, single point |
| 31 | `OCCN1CCN(CCC=C2c3ccccc3Sc3ccc(Cl)cc32)CC1` | TAB109 | 3162 | inhibitor, partial curve |
| 32 | `OCCN1CCN(CCC=C2c3ccccc3Sc3ccc(Cl)cc32)CC1` | DIV30 | 2558 | inhibitor, partial curve |
| 33 | `O=C1CC[C@@]2(O)C3Cc4ccc(O)c5c4C2(CCN3CC2CC2)[C@H]1O5` (some centres not stated) | W2 | 6012 | inhibitor, partial curve |
| 34 | `O=C1CC[C@@]2(O)C3Cc4ccc(O)c5c4C2(CCN3CC2CC2)[C@H]1O5` (some centres not stated) | CP335 | 4256 | inhibitor, single point |
| 35 | `CC(C)(C)CC(C)(C)c1ccc(O)cc1` | GB4 | 16944 | inhibitor, partial curve, poor fit |
| 36 | `CC(C)(C)CC(C)(C)c1ccc(O)cc1` | HB3 | 11220 | inhibitor, single point |
| 37 | `CC(C)(C)CC(C)(C)c1ccc(O)cc1` | ECU | 7943 | inhibitor, partial curve |
| 38 | `CC(C)(C)CC(C)(C)c1ccc(O)cc1` | AS120 | 17782 | inhibitor, single point |
| 39 | `CC(C)(C)CC(C)(C)c1ccc(O)cc1` | Dd2 | 12589 | inhibitor, single point |
| 40 | `CC(C)(C)CC(C)(C)c1ccc(O)cc1` | ICS | 10000 | inhibitor, single point |
| 41 | `CC(C)(C)CC(C)(C)c1ccc(O)cc1` | DIV17 | 19011 | inhibitor, single point |
| 42 | `CC(C)(C)CC(C)(C)c1ccc(O)cc1` | DIV14 | 15101 | inhibitor, single point |
| 43 | `CC(C)(C)CC(C)(C)c1ccc(O)cc1` | P94_40 | 17782 | inhibitor, single point |
| 44 | `CC(=O)Nc1ccc(NC(=S)NC(=O)c2ccc(C(C)(C)C)cc2)cc1` | ATS95 | 8912 | inhibitor, single point |
| 45 | `CC(=O)Nc1ccc(NC(=S)NC(=O)c2ccc(C(C)(C)C)cc2)cc1` | CP265 | 14125 | inhibitor, single point |
| 46 | `CC(=O)Nc1ccc(NC(=S)NC(=O)c2ccc(C(C)(C)C)cc2)cc1` | CP286 | 17782 | inhibitor, single point |
| 47 | `CC(=O)Nc1ccc(NC(=S)NC(=O)c2ccc(C(C)(C)C)cc2)cc1` | CP335 | 15101 | inhibitor, single point |
| 48 | `O=C(Oc1cccc2cccnc12)c1ccccc1` | CP260 | 17782 | inhibitor, single point |
| 49 | `O=C(Oc1cccc2cccnc12)c1ccccc1` | PC26 | 10690 | inhibitor, partial curve, poor fit |
| 50 | `O=C(Oc1cccc2cccnc12)c1ccccc1` | GB4 | 11995 | inhibitor, partial curve, poor fit |
| 51 | `CCOC(=O)C1=C(COCCN)NC(C)=C(C(=O)OC)C1c1ccccc1Cl` (configuration not stated) | CP237 | 14125 | inhibitor, single point |
| 52 | `CCOC(=O)C1=C(COCCN)NC(C)=C(C(=O)OC)C1c1ccccc1Cl` (configuration not stated) | W2 | 16944 | inhibitor, single point |
| 53 | `CCOC(=O)C1=C(COCCN)NC(C)=C(C(=O)OC)C1c1ccccc1Cl` (configuration not stated) | CP194 | 16944 | inhibitor, single point |
| 54 | `CCOC(=O)C1=C(COCCN)NC(C)=C(C(=O)OC)C1c1ccccc1Cl` (configuration not stated) | P93_24 | 10000 | inhibitor, single point |
| 55 | `CCOC(=O)C1=C(COCCN)NC(C)=C(C(=O)OC)C1c1ccccc1Cl` (configuration not stated) | N140 | 17782 | inhibitor, single point |

Some entries from above, unchanged:

Compound,condition,fitted potency (nM),remark
OCCN1CCN(CCC=C2c3ccccc3Sc3ccc(Cl)cc32)CC1,ECU,4467,"inhibitor, single point"
Cc1cc(O)c(C(C)C)cc1Cl,HB3,15848,"inhibitor, single point"
Cc1cncc(C(=O)O)[n+]1[O-],AS120,3981,"inhibitor, single point"
CC(C)N=c1cc2n(-c3ccc(Cl)cc3)c3ccccc3nc-2cc1Nc1ccc(Cl)cc1,CP237,6310,"inhibitor, single point"

The results are deposited in PubChem (AID504749; NCATS, 2011).